Data: article PMC7923384
These are yes or no findings as the source states them, for the method shown. Binding seen in cells or lysates may run through a third protein.

Protein sequences, listed by entry. Tags and fused reporters are not part of them.
UniProt Q9ULU4: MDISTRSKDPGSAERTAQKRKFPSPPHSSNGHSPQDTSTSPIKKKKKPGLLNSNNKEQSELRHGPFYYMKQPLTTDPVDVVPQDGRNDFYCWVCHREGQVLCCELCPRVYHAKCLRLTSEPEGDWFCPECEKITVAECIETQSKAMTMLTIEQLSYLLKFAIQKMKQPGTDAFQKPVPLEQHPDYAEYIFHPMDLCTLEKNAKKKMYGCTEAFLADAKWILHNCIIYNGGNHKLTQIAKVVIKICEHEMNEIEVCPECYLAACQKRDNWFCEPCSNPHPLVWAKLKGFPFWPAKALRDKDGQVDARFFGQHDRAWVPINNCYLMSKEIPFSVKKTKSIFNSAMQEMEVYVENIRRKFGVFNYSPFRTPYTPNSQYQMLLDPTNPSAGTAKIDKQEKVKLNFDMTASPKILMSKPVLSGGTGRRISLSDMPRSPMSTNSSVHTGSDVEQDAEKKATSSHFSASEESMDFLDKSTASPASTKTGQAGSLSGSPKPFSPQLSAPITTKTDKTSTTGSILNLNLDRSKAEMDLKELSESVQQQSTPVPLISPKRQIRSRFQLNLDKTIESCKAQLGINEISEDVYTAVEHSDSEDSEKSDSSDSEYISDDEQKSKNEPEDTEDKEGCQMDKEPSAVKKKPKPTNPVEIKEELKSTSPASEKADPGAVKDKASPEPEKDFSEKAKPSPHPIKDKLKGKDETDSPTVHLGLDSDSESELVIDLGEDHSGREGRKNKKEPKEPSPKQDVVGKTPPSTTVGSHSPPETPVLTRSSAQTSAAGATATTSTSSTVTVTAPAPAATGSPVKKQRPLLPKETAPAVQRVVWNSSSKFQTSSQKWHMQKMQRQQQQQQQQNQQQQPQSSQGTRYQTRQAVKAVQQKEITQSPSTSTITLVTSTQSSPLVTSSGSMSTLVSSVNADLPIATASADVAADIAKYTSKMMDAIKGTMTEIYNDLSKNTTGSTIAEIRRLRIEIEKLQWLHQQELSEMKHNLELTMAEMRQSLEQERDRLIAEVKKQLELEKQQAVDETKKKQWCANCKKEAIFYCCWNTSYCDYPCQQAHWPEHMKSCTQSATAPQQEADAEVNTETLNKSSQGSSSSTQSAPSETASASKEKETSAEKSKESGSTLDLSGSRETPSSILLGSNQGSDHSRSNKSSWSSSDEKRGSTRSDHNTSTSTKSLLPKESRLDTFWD
UniProt Q92800: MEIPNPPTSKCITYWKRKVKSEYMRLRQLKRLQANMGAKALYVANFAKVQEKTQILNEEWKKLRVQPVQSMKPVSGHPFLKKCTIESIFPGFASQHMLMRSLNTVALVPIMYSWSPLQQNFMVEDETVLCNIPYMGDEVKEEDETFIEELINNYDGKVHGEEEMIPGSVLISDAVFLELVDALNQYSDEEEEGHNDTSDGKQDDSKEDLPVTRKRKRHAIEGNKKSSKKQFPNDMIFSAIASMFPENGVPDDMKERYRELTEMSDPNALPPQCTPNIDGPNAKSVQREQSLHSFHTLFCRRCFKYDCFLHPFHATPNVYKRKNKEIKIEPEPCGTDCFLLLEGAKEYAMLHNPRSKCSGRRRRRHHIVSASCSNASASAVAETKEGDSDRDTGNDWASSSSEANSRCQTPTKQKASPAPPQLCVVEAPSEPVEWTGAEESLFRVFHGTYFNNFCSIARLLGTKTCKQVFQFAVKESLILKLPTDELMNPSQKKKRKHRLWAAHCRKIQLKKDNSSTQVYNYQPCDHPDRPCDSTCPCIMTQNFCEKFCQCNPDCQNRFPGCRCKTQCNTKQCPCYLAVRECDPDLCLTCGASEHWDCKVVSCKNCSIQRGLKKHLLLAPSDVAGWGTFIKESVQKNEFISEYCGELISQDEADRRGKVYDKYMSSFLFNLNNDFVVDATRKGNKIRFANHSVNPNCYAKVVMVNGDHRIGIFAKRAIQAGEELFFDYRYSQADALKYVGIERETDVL

Biological target: ZMYND8 (endogenous) (human (endogenous in 786-O and A498)) (UniProt Q9ULU4)
Experiment: co-IP; endogenous proteins from 786-O and A498 cell lysates, Western blot; also with lambda protein phosphatase on the lysate, sgZMYND8, sgCDK1, RO-3306 (10 uM, 24 h) or roscovitine

- binding: no binding
Substance: EZH1 (endogenous) (from UniProt Q92800 1-747)
